# PubChem BioAssay AID587 (National Center for Advancing Translational Sciences (NCATS), 2007)
# Screen size: about 59,000 compounds; about 35 (0.06%) were called active. Inconclusive means that the source gave no clear call. Such entries were picked first, then a sample of the others. Cut-off read from the data, not from the text of the source: active = max dye-equivalent concentration above about 10 nM; inconclusive = between about 1.1 nM and that limit; inactive = weaker than that.
# Assay: qHTS Assay for Spectroscopic Profiling in Texas Red Spectral Region
# Settings: Compound fluorescence, Texas Red channel, 547/618 nm; active compounds read high
# Procedure, shortened: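 Fluorescence at ex 547/em 618 nm, normalized against an on-plate Texas Red standard series to give dye-equivalent concentration per compound concentration. Buffer 100 mM Tris, pH 8.0; 15 min RT incubation before CCD imaging.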
row,Compound,max dye-equivalent concentration
1,O=C(O)c1cccc(CN2C(=O)SC(Nc3ccccc3)C2=O)c1 (configuration not stated),inconclusive: 1.3 nM
2,COC(=O)C1CCN(C(=O)c2c(-c3ccccc3Cl)noc2C)CC1,inconclusive: 1.1 nM
3,CC1CCCCN1C(=O)Cn1c(=O)n(CCC(=O)NCc2ccco2)c(=O)c2sccc21 (configuration not stated),inconclusive: 1.1 nM
4,COC(=O)c1sc(N2C(=O)c3oc4ccccc4c(=O)c3C2c2cccs2)nc1C (configuration not stated),inconclusive: 1.2 nM
5,O=C1c2ccccc2C(=O)N1CCn1nc(Cl)nc1Cl,inconclusive: 1.1 nM
6,C=CCn1c(SCC(=O)Nc2cc3oc4ccccc4c3cc2OC)nnc1-c1cnccn1,inconclusive: 1.5 nM
7,COc1ccc(Cc2nnc(SCc3nc4ccccc4c(=O)[nH]3)n2C)cc1,inconclusive: 1.9 nM
8,C[n+]1cc2c3c(ccc2c2ccc4cc5c(cc4c21)OCO5)OCO3,inactive
9,O=C(Cn1cnc2c(cnn2-c2ccc(Cl)cc2)c1=O)NCCc1ccccc1,inconclusive: 1.3 nM
10,CC1CCN(C(=O)CSc2nc(N)c3c4c(sc3n2)CN(C)CC4)CC1,inconclusive: 1.3 nM
11,CCOC(=O)C(NC(=O)c1ccc(OC)cc1)(N1CCOCC1)C(F)(F)F (configuration not stated),inconclusive: 2.1 nM
12,Cc1cc(C)c(C2C(C#N)=C(N)Oc3n[nH]c(C)c32)cc1CN1CCCC1 (configuration not stated),inconclusive: 1.5 nM
13,Cn1c(=O)c(-c2ccc(F)c(F)c2)nc2cncnc21,inactive
14,CC1CCC(NC(=O)C2c3ccccc3C(=O)N2CCCN2CCOCC2)CC1 (configuration not stated),inconclusive: 1.1 nM
15,N=c1c2c3c(sc2ncn1CCCN1CCOCC1)CCCCC3,inconclusive: 2 nM
16,O=C(CSc1nnc(-c2cccs2)n1-c1ccccc1)N1CCc2ccccc21,inconclusive: 1.5 nM
17,CC(=O)c1c(C)[nH]c(C(=O)OCn2nnc3ccccc3c2=O)c1C,inconclusive: 1.3 nM
18,O=C1Nc2ccccc2N=C(c2ccccc2)C1N1CCOCC1 (configuration not stated),inconclusive: 1.1 nM
19,CS[C@]12C(=O)C[C@]3(C)[C@@H](CC[C@@]3(O)C(=O)CO)[C@@H]1CCC1=CC(=O)CC[C@]12C,inconclusive: 1.1 nM
20,O=C(CCn1nnc2ccccc21)N1CCC(O)(c2cccc(F)c2)CC1,inconclusive: 1.9 nM
21,CCOC(=O)N1CCN(C(=O)CSc2nc3ccccc3c(=O)n2-c2ccccc2)CC1,inconclusive: 1.5 nM
22,COc1ccc(S(=O)(=O)Nc2ccc(S(=O)(=O)Nc3nc(C)cc(C)n3)cc2)cc1OC,inconclusive: 1.3 nM
